Repeats are few or missing, and single values can be far off.
Compound: [O-][N+](C(C1=C(C(O)=C2)NC(C(C=C3)=CC=C3Cl)C4C1C=CC4)=C2Cl)=O
Assay: melting temperature shift (compound 7 minus DMSO); higher = compound stabilises the protein
Settings: 10 µM
Description: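 Thermal proteome profiling (TMT mass spectrometry) in intact DAOY medulloblastoma cells or DAOY lysates treated with 10 µM compound 7 or DMSO, heated at 10 temperatures from 40.5 to 73.8 °C for 3 min. Melting curves were fitted with the Bioconductor TPP package, and the melting point difference between compound and vehicle is reported per protein (single curve per condition).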

Chains of the proteins cited; added tags and fusions are not shown. Lines headed by an entry give the natural chain unless they say otherwise; changes in a name come on top.
UniProt Q9UNL4, whole entry: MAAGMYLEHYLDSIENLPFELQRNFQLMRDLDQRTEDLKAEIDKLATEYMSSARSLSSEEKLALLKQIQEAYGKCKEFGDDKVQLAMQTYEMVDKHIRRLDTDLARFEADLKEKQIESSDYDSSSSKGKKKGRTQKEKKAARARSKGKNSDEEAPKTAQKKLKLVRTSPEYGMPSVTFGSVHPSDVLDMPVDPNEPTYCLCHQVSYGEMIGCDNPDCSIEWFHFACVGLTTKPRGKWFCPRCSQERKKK
UniProt Q9NV88, whole entry: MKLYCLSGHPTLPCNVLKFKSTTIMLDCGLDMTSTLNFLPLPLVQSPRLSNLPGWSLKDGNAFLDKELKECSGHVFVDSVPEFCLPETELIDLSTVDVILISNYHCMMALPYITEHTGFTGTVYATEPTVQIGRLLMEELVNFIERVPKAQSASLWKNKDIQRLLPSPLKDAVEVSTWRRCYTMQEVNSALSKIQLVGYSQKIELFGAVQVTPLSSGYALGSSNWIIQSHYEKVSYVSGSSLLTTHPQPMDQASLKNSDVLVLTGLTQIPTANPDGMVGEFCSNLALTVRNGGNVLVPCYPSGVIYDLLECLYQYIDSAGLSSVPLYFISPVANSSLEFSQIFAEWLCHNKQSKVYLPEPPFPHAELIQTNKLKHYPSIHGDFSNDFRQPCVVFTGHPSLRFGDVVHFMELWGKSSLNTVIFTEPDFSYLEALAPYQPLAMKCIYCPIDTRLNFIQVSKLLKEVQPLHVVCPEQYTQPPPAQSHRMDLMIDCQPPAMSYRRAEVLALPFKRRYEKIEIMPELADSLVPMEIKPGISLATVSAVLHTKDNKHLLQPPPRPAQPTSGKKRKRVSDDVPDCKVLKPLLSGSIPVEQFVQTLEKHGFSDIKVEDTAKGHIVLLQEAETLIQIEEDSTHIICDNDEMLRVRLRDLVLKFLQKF
UniProt O15127: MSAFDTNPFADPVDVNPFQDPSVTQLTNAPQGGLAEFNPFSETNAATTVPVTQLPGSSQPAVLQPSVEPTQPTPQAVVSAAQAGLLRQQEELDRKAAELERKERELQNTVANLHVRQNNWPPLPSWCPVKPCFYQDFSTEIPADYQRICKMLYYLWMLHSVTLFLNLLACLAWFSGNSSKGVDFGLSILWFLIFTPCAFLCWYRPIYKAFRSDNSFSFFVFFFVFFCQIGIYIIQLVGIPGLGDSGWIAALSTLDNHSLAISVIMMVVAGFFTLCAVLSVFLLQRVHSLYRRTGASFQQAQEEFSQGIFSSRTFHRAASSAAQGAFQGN
UniProt P51790: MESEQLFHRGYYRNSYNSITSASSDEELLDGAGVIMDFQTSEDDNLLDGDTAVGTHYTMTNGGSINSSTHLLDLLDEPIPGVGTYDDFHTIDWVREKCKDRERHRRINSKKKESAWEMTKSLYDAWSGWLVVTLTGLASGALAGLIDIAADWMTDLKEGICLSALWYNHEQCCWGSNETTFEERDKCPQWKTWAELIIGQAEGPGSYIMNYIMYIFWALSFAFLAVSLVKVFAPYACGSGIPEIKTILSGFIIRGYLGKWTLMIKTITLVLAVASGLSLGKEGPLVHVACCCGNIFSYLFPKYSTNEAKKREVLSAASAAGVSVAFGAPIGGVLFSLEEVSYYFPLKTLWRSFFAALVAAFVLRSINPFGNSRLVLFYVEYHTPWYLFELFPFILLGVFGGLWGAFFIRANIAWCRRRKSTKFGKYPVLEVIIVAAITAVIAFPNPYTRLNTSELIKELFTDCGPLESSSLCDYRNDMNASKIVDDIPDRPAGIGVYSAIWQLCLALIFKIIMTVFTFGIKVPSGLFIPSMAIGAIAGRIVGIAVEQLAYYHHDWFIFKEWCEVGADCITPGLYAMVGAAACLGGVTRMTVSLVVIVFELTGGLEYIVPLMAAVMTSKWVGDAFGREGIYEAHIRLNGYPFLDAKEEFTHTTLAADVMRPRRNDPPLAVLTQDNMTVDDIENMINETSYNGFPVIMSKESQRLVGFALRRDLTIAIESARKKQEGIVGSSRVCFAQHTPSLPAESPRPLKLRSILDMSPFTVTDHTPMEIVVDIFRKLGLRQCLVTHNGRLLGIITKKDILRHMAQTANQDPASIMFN
UniProt Q9BQA9: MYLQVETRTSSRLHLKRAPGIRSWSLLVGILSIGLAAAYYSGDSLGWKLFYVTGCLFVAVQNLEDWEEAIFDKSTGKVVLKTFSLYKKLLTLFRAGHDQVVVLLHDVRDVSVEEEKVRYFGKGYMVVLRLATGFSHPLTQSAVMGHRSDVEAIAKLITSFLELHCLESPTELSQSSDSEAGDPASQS
UniProt O75161: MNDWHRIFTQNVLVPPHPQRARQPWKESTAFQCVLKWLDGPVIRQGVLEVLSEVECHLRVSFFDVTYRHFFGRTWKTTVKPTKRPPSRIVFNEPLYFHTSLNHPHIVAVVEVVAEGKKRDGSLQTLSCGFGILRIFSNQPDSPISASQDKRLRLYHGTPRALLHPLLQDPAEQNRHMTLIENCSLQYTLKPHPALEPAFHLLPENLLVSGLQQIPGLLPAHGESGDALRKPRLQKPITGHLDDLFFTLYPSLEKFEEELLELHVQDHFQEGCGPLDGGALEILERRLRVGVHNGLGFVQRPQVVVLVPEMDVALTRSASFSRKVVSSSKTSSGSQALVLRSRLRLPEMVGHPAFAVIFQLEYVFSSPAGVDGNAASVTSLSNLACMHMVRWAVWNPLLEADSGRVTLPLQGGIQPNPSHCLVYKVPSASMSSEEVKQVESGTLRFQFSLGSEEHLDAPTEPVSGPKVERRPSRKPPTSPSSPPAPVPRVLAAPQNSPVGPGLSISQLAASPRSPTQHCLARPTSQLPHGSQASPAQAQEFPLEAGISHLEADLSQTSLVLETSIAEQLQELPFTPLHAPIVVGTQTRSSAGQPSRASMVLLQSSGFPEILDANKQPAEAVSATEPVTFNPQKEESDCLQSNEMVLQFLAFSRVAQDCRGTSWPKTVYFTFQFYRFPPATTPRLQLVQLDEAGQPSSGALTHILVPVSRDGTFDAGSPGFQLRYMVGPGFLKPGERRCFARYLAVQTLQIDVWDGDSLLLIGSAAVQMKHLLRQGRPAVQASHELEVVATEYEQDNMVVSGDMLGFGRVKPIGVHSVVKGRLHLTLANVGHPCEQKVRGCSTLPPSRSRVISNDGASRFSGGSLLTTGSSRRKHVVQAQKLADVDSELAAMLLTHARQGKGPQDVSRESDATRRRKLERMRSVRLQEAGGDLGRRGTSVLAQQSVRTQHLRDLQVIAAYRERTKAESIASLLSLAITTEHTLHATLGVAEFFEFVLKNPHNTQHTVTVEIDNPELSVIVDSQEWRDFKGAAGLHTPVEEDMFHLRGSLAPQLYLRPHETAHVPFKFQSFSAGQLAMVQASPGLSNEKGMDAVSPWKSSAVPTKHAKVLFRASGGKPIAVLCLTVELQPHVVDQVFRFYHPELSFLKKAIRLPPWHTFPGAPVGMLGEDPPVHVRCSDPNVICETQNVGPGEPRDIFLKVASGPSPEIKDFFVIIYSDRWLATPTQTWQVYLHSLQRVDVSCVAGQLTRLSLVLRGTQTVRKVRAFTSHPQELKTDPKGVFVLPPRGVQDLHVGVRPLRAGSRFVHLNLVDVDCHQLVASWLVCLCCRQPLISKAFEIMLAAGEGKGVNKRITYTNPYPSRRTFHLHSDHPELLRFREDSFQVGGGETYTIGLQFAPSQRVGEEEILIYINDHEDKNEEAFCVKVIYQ
UniProt O95297: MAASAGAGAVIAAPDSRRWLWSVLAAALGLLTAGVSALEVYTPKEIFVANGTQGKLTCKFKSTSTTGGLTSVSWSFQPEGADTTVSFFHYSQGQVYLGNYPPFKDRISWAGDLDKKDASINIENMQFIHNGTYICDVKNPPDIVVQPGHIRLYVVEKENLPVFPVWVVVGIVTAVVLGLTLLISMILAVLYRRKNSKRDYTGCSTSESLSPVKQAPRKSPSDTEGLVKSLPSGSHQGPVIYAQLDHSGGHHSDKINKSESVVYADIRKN
UniProt P54289, whole entry: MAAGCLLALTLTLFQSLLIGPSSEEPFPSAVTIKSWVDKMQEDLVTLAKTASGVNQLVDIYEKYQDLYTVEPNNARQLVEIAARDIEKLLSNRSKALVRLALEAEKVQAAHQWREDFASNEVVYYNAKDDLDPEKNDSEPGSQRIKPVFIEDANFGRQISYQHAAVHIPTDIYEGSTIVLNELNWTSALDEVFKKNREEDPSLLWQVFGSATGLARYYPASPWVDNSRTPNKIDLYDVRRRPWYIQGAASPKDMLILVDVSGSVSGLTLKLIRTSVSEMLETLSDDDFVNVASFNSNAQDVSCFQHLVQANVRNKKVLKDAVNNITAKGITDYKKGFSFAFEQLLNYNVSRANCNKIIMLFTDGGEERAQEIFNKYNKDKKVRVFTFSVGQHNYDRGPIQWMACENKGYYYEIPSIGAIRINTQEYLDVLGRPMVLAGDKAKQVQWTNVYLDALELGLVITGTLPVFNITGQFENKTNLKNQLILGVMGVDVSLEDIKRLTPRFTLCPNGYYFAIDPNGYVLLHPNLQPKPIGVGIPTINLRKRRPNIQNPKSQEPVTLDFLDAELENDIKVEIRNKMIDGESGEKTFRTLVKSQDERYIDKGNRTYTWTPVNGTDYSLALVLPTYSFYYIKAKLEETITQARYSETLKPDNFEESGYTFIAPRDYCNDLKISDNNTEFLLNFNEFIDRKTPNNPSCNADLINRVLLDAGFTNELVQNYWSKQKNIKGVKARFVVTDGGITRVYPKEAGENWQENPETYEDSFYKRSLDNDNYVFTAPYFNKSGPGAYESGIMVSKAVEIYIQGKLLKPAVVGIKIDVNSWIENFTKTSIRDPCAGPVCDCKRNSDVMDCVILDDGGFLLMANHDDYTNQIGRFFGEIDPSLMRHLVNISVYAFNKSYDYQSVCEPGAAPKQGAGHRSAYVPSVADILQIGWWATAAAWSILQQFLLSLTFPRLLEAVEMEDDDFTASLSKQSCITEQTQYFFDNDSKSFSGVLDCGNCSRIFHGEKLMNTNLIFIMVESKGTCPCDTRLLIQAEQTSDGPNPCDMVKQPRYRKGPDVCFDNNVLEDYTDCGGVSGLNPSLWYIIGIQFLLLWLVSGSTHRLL
UniProt Q14146: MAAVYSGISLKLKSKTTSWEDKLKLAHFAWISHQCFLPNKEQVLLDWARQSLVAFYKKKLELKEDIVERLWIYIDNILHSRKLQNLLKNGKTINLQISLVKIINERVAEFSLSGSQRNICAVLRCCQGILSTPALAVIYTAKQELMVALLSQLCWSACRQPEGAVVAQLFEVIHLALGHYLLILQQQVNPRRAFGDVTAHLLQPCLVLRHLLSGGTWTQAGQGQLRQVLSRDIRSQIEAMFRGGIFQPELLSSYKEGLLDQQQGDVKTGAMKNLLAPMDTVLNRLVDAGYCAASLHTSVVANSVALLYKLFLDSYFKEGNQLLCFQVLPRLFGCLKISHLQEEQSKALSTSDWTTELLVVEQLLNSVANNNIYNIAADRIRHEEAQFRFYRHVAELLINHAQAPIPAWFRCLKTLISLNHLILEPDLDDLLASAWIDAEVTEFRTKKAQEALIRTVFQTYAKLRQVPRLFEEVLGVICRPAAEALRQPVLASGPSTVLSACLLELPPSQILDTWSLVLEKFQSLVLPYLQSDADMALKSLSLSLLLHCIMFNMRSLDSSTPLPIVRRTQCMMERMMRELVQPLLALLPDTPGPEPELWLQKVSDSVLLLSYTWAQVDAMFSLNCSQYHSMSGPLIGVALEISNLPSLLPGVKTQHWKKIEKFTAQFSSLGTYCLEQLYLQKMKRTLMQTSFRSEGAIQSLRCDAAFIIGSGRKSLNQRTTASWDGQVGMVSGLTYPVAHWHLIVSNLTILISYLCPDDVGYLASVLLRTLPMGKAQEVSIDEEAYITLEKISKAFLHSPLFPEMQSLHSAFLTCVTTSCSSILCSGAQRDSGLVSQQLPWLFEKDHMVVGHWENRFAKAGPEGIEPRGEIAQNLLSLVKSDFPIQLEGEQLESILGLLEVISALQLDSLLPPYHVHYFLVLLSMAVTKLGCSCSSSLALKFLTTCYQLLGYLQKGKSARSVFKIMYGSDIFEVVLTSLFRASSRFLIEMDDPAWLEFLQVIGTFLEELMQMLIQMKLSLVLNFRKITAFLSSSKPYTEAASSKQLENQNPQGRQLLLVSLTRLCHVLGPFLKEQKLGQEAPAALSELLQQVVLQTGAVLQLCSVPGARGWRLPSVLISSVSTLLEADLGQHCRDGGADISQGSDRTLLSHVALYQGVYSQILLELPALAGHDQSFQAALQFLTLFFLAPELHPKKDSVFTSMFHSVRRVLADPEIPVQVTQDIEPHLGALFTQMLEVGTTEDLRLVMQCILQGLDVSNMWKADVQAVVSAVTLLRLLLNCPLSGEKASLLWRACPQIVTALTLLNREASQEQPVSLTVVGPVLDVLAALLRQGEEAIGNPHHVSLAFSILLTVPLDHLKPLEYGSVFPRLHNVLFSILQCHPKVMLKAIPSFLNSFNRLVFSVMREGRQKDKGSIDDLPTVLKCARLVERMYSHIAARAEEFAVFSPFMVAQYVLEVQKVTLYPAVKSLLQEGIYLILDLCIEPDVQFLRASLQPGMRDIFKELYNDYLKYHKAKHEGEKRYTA

[1] = system: DAOY cell lysate, treatment time: 20 min, 4 °C
[2] = system: intact DAOY cells, treatment time: 90 min, 37 °C

Target	melting temperature shift [1] [°C]	melting temperature shift [2] [°C]
UniProt Q9UNL4	-1.83	–
FUNDC2 (UniProt Q9BWH2)	-3.38	–
APOO (UniProt Q9BUR5)	2.26	-0.807
TMED7 (UniProt Q9Y3B3)	0.725	-1.92
IPO8 (UniProt O15397)	-1.07	-0.873
SEC11C (UniProt Q9BY50)	1.83	-1.86
LPCAT4 (UniProt Q643R3)	3.95	-2.81
LYPLA2 (UniProt O95372)	-0.27	0.245
TNKS1BP1 (UniProt Q9C0C2)	-3.46	–
UniProt P56282	0.253	–
RPS17 (UniProt P08708)	-0.217	-0.756
UniProt Q9NV88	0.336	0.682
CHD3 (UniProt Q12873)	-0.647	-0.437
RNGTT (UniProt O60942)	-1.03	-0.708
AKT1 (UniProt P31749)	-0.653	1.59
SART3 (UniProt Q15020)	-0.318	0.114
UniProt Q9NS73	0.441	–
SLC4A2 (UniProt P04920)	0.63	-0.651
NIF3L1 (UniProt Q9GZT8)	-0.0392	3.38
ZWINT (UniProt O95229)	-0.436	-0.918
SCAMP2 (UniProt O15127)	0.828	6.37
UniProt Q2TAP0	–	0.107
CLCN3 (UniProt P51790)	-4.48	–

Target	melting temperature shift [1] [°C]	melting temperature shift [2] [°C]
UniProt O75127	2.46	–
MARCH5 (UniProt Q9NX47)	-1.03	1.62
FAM172A (UniProt Q8WUF8)	0.98	0.0826
USP36 (UniProt Q9P275)	0.197	–
UniProt P42898	0.587	-2.07
TNFAIP3 (UniProt P21580)	–	-1.65
UniProt Q9BYC2	–	0.0355
SRPRA (UniProt P08240)	0.423	-1.16
EPHX1 (UniProt P07099)	2.16	-0.668
WRNIP1 (UniProt Q96S55)	-1.76	-3.34
SCPEP1 (UniProt Q9HB40)	0.0633	-1.84
UniProt Q5T1J5	–	0.235
KPNA2 (UniProt P52292)	-0.469	0.25
UniProt Q9H7B2	0.782	-0.423
RNF25 (UniProt Q96BH1)	0.122	-0.0472
LUC7L (UniProt Q9NQ29)	-0.616	-1.48
API5 (UniProt Q9BZZ5)	0.0758	-0.00171
SPAG7 (UniProt O75391)	1.88	–
UniProt P55199	0.404	-4.36
C17ORF62 (UniProt Q9BQA9)	1.97	-2.02
GNE (UniProt Q9Y223)	0.0801	-1.07
NDUFAF2 (UniProt Q8N183)	1.75	–
MAPKAPK3 (UniProt Q16644)	-0.266	-0.164

Target	melting temperature shift [1] [°C]	melting temperature shift [2] [°C]
TMED1 (UniProt Q13445)	0.368	-0.685
GINS4 (UniProt Q9BRT9)	-1.16	0.648
UniProt O75161	–	-2.36
RAB22A (UniProt Q9UL26)	0.0861	-0.259
PRKACB (UniProt P22694)	0.378	-0.481
UBE2E1 (UniProt P51965)	-0.493	-0.534
CLPTM1L (UniProt Q96KA5)	0.293	-0.885
UniProt Q9UNW9	–	-0.343
PPP3CA (UniProt Q08209)	-0.8	0.68
BAIAP2L1 (UniProt Q9UHR4)	-0.557	-0.587
VCP (UniProt P55072)	0.53	-0.244
UniProt Q15528	0.231	–
DAPK3 (UniProt O43293)	–	0.494
EIF2A (UniProt Q9BY44)	0.126	0.152
UniProt Q9ULJ6	-0.911	-1.02
PPP2R5D (UniProt Q14738)	-0.382	-0.455
LYPLAL1 (UniProt Q5VWZ2)	-0.772	0.211
UniProt P38570	–	1.8
INTS4 (UniProt Q96HW7)	-0.217	1.7
CYC1 (UniProt P08574)	0.975	0.439
PDLIM7 (UniProt Q9NR12)	-0.205	-0.0136
SLBP (UniProt Q14493)	0.0074	–
MPZL1 (UniProt O95297)	3.16	–

17 entries from above, in markdown:

| Target | melting temperature shift [1] [°C] | melting temperature shift [2] [°C] |
| --- | --- | --- |
| PRKACB (UniProt P22694) | 0.378 | -0.481 |
| UBE2E1 (UniProt P51965) | -0.493 | -0.534 |
| CLPTM1L (UniProt Q96KA5) | 0.293 | -0.885 |
| UniProt Q9UNW9 | – | -0.343 |
| PPP3CA (UniProt Q08209) | -0.8 | 0.68 |
| BAIAP2L1 (UniProt Q9UHR4) | -0.557 | -0.587 |
| VCP (UniProt P55072) | 0.53 | -0.244 |
| UniProt Q15528 | 0.231 | – |
| DAPK3 (UniProt O43293) | – | 0.494 |
| EIF2A (UniProt Q9BY44) | 0.126 | 0.152 |
| UniProt Q9ULJ6 | -0.911 | -1.02 |
| PPP2R5D (UniProt Q14738) | -0.382 | -0.455 |
| LYPLAL1 (UniProt Q5VWZ2) | -0.772 | 0.211 |
| UniProt P38570 | – | 1.8 |
| INTS4 (UniProt Q96HW7) | -0.217 | 1.7 |
| CYC1 (UniProt P08574) | 0.975 | 0.439 |
| PDLIM7 (UniProt Q9NR12) | -0.205 | -0.0136 |

The results go on.

Target	melting temperature shift [1] [°C]	melting temperature shift [2] [°C]
CPNE8 (UniProt Q86YQ8)	-0.368	–
FMNL2 (UniProt Q96PY5)	–	0.489
SLC35B2 (UniProt Q8TB61)	-0.467	-0.526
UniProt Q6P2I3	–	-0.0772
UniProt P54289	1.11	-0.528
UniProt Q8WTS1	0.782	–
DOCK6 (UniProt Q96HP0)	2.17	-0.196
C1ORF123 (UniProt Q9NWV4)	3.71	0.433
UniProt P61204	–	-1.13
NDUFA12 (UniProt Q9UI09)	3.1	-0.301
UniProt P45985	-0.65	-2.26
GOLPH3 (UniProt Q9H4A6)	0.626	0.14
UniProt P46379	-0.58	1.08
FTSJ3 (UniProt Q8IY81)	0.59	–
PPA2 (UniProt Q9H2U2)	-0.146	-1.62
ZNF148 (UniProt Q9UQR1)	-0.733	–
UniProt Q14146	0.376	–
PTGFRN (UniProt Q9P2B2)	1.97	0.811
UniProt P54868	–	-1.43
TIPIN (UniProt Q9BVW5)	-1.21	0.802
AKAP1 (UniProt Q92667)	1.73	–
WDR92 (UniProt Q96MX6)	0.303	-1.05
